Reference: publication doi:10.1101/2021.06.10.445978
Results are given in words; binding and its absence hold for the method and conditions named. In cells and extracts the contact can be indirect. Binding calls can cover weak binding; strength is not graded here. Tags and fused reporters may be left off the sequences shown.

Protein sequences, listed by entry. Tags and fused reporters are not part of them. Lines headed by an entry give the natural chain unless they say otherwise; changes in a name come on top.
UniProt O48915: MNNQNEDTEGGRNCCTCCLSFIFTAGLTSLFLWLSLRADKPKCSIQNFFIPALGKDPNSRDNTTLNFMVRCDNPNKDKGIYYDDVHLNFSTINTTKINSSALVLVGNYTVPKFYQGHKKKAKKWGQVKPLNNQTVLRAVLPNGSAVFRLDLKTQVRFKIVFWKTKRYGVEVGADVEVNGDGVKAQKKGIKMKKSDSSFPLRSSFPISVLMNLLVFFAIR

Tests used:
[1] = target: Flag-NDR1 (Arabidopsis thaliana) (UniProt O48915); assay: co-IP
[2] = target: myc-nEYFP-NDR1 (Arabidopsis thaliana) (UniProt O48915); assay: split reporter

Row | Binder | binding [1] | binding [2]
1 | HA-AHA5 (enzyme, UniProt Q9SJB3 1-949) MSELDHIKNESVDLVRIPMEEVFEELKCTKQGLTANEASHRLDVFGPNKLEEKKESKLLKFLGFMWNPLSWVMEVAALMAIALANGGGRPPDWQDFVGIVCLLLINSTISFIEENNAGNAAAALMAGLAPKTKVLRDNQWSEQEASILVPGDVISIKLGDIIPADARLLDGDPLKIDQSSLTGESIPVTKNPSDEVFSGSICKQGEIEAIVIATGVHTFFGKAAHLVDNTNQIGHFQKVLTSIGNFCICSIALGIIVELLVMYPIQRRRYRDGIDNLLVLLIGGIPIAMPSVLSVTMATGSHRLFQQGAITKRMTAIEEMAGMDVLCCDKTGTLTLNKLTVDKNLVEVFAKGVGKEHVFLLAARASRIENQDAIDAAIVGMLADPKEARAGVREVHFFPFNPVDKRTALTYVDSDGNWHRASKGAPEQILNLCNCKEDVRRKVHGVIDKFAERGLRSLAVARQEVLEKKKDAPGGPWQLVGLLPLFDPPRHDSAETIRRALNLGVNVKMITGDQLAIGKETGRRLGMGTNMYPSSALLGQVKDSSLGALPVDELIEKADGFAGVFPEHKYEIVHRLQQRNHICGMTGDGVNDAPALKKADIGIAVVDATDAARGASDIVLTEPGLSVIISAVLTSRAIFQRMKNYTIYAVSITIRIVFGFMFIALIWQFDFSPFMVLIIAILNDGTIMTISKDRMKPSPQPDSWKLRDIFSTGVVLGGYQALMTVVFFWVMKDSDFFSNYFGVRPLSQRPEQMMAALYLQVSIISQALIFVTRSRSWSYAECPGLLLLGAFVIAQLVATFIAVYANWSFARIEGAGWGWAGVIWLYSFLTYIPLDLLKFGIRYVLSGKAWLNLLENKTAFTTKKDYGKEEREAQWAAAQRTLHGLQPAEKNNIFNEKNSYSELSQIAEQAKRRAEVVRLREINTLKGHVESVVKLKGLDIDTIQQHYTV | binds | –
2 | AHA5-HA-cEYFP (enzyme, UniProt Q9SJB3 1-949) MSELDHIKNESVDLVRIPMEEVFEELKCTKQGLTANEASHRLDVFGPNKLEEKKESKLLKFLGFMWNPLSWVMEVAALMAIALANGGGRPPDWQDFVGIVCLLLINSTISFIEENNAGNAAAALMAGLAPKTKVLRDNQWSEQEASILVPGDVISIKLGDIIPADARLLDGDPLKIDQSSLTGESIPVTKNPSDEVFSGSICKQGEIEAIVIATGVHTFFGKAAHLVDNTNQIGHFQKVLTSIGNFCICSIALGIIVELLVMYPIQRRRYRDGIDNLLVLLIGGIPIAMPSVLSVTMATGSHRLFQQGAITKRMTAIEEMAGMDVLCCDKTGTLTLNKLTVDKNLVEVFAKGVGKEHVFLLAARASRIENQDAIDAAIVGMLADPKEARAGVREVHFFPFNPVDKRTALTYVDSDGNWHRASKGAPEQILNLCNCKEDVRRKVHGVIDKFAERGLRSLAVARQEVLEKKKDAPGGPWQLVGLLPLFDPPRHDSAETIRRALNLGVNVKMITGDQLAIGKETGRRLGMGTNMYPSSALLGQVKDSSLGALPVDELIEKADGFAGVFPEHKYEIVHRLQQRNHICGMTGDGVNDAPALKKADIGIAVVDATDAARGASDIVLTEPGLSVIISAVLTSRAIFQRMKNYTIYAVSITIRIVFGFMFIALIWQFDFSPFMVLIIAILNDGTIMTISKDRMKPSPQPDSWKLRDIFSTGVVLGGYQALMTVVFFWVMKDSDFFSNYFGVRPLSQRPEQMMAALYLQVSIISQALIFVTRSRSWSYAECPGLLLLGAFVIAQLVATFIAVYANWSFARIEGAGWGWAGVIWLYSFLTYIPLDLLKFGIRYVLSGKAWLNLLENKTAFTTKKDYGKEEREAQWAAAQRTLHGLQPAEKNNIFNEKNSYSELSQIAEQAKRRAEVVRLREINTLKGHVESVVKLKGLDIDTIQQHYTV | – | binds
